The values below come from the supplement of paper PMC6411743.

Chains of the proteins cited; added tags and fusions are not shown. Lines headed by an entry give the natural chain unless they say otherwise; changes in a name come on top.
UniProt Q96IV0: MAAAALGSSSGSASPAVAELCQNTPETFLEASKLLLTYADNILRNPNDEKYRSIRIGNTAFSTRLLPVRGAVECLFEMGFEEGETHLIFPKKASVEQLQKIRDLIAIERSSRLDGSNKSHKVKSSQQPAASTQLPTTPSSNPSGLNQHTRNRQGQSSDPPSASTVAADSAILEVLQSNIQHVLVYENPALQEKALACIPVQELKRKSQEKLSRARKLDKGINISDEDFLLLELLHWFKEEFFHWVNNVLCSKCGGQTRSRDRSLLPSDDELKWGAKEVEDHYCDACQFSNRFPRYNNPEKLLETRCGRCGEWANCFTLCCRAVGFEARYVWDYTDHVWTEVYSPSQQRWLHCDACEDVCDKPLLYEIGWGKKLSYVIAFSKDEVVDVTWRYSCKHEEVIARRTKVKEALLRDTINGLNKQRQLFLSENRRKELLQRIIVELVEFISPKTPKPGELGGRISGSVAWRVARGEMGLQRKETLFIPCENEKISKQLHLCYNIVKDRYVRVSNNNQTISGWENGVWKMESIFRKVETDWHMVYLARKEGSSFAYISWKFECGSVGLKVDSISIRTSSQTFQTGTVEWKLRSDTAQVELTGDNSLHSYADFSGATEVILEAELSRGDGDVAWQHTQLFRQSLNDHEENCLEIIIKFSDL
UniProt Q96I24: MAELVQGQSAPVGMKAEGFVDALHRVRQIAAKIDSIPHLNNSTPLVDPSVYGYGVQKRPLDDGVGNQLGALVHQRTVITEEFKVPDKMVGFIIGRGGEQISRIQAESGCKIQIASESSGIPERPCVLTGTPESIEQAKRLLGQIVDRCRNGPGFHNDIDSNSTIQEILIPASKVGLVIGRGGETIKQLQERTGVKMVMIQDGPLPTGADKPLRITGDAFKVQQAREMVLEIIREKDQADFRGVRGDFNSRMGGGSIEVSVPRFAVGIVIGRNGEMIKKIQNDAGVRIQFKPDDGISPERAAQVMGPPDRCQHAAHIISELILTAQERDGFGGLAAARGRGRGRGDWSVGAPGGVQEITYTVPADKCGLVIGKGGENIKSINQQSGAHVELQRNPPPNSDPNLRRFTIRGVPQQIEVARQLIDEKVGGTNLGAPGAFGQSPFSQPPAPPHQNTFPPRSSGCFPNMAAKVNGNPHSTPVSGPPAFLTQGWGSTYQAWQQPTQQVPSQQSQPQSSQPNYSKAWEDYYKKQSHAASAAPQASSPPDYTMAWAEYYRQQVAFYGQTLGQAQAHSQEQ
UniProt Q96QE3: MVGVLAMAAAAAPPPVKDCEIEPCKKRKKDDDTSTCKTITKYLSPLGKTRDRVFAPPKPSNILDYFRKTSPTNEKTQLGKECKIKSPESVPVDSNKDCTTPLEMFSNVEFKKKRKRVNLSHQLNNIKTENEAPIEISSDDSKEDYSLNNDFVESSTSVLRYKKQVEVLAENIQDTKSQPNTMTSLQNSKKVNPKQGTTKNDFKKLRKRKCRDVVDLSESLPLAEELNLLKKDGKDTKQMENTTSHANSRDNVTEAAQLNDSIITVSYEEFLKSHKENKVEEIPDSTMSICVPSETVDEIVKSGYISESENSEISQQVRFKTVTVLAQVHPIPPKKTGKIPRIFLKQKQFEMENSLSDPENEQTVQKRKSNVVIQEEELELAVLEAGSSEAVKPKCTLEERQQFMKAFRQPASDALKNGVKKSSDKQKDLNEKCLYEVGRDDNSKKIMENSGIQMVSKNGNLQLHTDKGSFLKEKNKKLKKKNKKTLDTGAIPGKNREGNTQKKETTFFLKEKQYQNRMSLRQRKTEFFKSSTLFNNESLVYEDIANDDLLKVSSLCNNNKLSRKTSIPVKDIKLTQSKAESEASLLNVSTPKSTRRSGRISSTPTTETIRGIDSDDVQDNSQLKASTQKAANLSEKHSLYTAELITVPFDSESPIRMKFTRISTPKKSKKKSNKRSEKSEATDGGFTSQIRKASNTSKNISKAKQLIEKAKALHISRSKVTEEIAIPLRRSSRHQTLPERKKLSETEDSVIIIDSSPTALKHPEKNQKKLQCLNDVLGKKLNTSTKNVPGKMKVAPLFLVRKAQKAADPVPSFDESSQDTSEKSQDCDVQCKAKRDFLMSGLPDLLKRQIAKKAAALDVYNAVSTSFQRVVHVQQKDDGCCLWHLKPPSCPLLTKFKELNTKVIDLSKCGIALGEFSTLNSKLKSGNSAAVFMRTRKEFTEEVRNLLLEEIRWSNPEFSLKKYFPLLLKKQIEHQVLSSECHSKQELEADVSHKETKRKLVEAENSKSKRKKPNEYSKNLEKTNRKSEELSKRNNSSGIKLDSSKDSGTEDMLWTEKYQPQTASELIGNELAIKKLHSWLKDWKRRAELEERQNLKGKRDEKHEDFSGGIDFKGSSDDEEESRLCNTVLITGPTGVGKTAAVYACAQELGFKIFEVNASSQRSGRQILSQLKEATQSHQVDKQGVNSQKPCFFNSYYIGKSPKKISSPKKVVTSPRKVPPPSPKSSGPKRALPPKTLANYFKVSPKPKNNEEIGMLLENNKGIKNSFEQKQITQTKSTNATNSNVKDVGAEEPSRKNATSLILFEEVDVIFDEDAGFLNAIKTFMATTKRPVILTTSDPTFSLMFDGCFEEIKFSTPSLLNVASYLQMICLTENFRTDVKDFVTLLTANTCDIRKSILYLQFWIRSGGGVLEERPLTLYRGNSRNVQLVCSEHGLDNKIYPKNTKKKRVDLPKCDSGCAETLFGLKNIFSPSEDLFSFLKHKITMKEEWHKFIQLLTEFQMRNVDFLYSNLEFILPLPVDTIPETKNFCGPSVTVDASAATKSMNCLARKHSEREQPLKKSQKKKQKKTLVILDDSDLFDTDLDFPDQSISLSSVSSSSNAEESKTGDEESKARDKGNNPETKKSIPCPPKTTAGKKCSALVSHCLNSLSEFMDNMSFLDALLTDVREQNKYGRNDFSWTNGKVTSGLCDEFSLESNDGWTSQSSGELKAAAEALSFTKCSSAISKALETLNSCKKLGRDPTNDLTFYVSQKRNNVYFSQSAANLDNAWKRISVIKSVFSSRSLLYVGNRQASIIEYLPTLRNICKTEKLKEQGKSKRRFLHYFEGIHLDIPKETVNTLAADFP
UniProt Q96EK9: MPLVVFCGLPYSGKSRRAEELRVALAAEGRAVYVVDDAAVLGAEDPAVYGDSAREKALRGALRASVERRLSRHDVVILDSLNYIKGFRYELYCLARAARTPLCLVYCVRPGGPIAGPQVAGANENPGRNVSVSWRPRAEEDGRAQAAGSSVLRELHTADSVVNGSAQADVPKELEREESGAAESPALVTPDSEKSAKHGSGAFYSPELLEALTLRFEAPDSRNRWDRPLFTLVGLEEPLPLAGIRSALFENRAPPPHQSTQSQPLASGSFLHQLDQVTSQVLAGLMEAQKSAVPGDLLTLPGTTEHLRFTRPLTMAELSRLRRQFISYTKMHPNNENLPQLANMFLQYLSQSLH
UniProt Q96A33: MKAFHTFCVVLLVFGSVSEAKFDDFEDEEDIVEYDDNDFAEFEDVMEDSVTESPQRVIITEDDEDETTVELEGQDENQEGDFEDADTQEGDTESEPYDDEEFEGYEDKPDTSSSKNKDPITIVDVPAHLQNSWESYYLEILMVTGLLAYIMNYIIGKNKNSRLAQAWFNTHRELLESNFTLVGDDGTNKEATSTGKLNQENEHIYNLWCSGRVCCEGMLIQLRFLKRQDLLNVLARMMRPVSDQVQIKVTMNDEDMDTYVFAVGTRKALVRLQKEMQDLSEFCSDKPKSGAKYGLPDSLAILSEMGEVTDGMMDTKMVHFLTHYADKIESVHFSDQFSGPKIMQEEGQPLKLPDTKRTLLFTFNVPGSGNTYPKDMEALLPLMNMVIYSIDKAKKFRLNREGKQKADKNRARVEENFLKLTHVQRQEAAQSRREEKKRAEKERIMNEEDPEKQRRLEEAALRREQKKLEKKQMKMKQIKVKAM
UniProt Q96AD5: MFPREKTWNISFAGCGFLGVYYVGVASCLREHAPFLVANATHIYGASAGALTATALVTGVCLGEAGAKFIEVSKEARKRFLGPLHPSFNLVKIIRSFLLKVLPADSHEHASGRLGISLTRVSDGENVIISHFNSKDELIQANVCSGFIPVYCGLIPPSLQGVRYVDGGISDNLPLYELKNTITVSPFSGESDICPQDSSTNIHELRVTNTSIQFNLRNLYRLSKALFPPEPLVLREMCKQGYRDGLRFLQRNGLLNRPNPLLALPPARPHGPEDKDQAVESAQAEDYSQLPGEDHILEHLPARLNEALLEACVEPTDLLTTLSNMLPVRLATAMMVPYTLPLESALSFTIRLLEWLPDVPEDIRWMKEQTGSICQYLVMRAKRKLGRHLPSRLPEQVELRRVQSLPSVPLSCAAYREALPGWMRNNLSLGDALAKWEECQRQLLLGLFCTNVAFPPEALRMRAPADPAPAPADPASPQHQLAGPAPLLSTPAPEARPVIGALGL
UniProt Q96E29: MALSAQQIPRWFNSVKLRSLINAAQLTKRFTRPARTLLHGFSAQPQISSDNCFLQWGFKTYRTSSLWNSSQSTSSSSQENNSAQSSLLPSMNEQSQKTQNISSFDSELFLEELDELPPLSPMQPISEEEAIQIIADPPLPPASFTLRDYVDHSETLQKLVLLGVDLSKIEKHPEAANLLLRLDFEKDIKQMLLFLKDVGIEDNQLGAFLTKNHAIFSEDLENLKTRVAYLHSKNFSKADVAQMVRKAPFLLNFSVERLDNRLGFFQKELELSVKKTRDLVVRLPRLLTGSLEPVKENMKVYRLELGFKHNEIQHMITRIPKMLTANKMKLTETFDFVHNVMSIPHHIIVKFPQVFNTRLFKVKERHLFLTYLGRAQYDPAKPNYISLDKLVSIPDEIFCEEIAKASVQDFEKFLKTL
UniProt Q96EK6: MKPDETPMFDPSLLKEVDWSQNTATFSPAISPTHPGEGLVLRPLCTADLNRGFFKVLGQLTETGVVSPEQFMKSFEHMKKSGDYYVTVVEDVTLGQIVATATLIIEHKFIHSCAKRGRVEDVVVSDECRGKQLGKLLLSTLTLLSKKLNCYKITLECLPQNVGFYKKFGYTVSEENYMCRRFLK
UniProt Q96Q11: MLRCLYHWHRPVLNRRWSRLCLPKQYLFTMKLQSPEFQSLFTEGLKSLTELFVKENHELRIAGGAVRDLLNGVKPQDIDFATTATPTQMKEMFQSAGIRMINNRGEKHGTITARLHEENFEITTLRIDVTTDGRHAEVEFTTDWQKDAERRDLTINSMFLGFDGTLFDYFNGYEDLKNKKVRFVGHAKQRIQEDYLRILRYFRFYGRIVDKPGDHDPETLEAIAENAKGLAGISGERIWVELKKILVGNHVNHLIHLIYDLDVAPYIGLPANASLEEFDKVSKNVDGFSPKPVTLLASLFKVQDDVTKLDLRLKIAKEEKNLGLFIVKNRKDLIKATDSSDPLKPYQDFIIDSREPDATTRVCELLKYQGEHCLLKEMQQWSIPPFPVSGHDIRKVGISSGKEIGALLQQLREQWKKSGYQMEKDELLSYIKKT
UniProt Q96G25: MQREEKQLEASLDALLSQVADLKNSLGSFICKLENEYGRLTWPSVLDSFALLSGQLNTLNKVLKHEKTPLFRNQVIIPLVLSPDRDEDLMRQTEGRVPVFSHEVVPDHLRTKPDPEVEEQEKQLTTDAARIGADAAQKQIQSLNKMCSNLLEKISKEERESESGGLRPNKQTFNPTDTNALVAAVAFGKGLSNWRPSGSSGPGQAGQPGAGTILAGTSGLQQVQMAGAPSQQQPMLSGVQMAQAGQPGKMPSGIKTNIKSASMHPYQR
UniProt Q96D71: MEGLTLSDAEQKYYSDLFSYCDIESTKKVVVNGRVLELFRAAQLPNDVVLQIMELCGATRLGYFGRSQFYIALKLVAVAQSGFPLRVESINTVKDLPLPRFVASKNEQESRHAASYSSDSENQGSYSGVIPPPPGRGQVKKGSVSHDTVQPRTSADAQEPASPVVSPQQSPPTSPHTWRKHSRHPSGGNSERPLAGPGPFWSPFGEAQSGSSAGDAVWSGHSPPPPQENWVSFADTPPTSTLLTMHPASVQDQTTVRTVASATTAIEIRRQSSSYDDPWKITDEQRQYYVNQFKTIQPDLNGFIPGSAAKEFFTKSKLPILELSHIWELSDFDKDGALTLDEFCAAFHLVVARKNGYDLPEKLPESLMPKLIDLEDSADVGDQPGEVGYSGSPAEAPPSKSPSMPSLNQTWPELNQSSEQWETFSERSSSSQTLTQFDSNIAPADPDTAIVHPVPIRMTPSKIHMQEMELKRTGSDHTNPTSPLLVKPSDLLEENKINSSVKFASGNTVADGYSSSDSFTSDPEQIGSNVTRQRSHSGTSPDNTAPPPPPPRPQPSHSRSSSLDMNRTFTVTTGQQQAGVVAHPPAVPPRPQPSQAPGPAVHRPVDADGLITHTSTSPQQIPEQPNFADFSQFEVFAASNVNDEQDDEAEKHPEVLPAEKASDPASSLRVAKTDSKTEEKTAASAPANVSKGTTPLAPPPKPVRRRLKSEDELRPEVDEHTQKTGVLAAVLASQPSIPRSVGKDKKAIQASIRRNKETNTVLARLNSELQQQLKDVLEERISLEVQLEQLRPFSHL

Compound in this test: Nc1ncnc2c1ncn2[C@@H]1O[C@H](COP(=O)(O)OP(=O)(O)NP(=O)(O)O)[C@@H](O)[C@H]1O [adenylyl imidodiphosphate]
As to the kind of experiment: NP40-soluble protein abundance relative to vehicle (solubility fold change) (ratio); higher = more soluble protein in presence of AMP-PNP. In outline: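 Crude Jurkat lysate, prepared by Dounce homogenisation, was exposed to eight concentrations from 0.1 to 10 mM for 10 min at room temperature and then 3 min at 37 °C. Solubilisation used 0.8% NP40 with benzonase for 60 min at 4 °C, followed by ultracentrifugation and TMT labelling of the supernatant for LC-MS/MS. After vsn normalisation of intensities, each value is the fold change against the detergent-processed vehicle within each replicate, across three independent experiments.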

± gives the standard deviation of the averaged measurements. The entries are a selection whose mix differs from that of the whole data set. Most entries show no effect beyond the scatter of the controls.

In the case of UniProt Q96NC0, the NP40-soluble protein abundance came to 0.986 ± 0.042 (concentration: 0.1mM) and 1.06 ± 0.07 (concentration: 0.5mM).
For PPWD1 (UniProt Q96BP3), in that order: 1.02 ± 0.018 and 0.983 ± 0.057.
For UniProt Q96IV0 and related entries the same measures were 0.977 ± 0.046 and 0.972 ± 0.033.
For the target UniProt Q96QF0 and related entries, the NP40-soluble protein abundance stood at 1.01 ± 0.052 (concentration: 0.1mM) and 1.02 ± 0.027 (concentration: 0.5mM).
For ATG2B (UniProt Q96BY7), in that order: 0.983 ± 0.023 and 0.954 ± 0.041.
For FUBP3 (UniProt Q96I24), in that order: 0.992 ± 0.034 and 0.994 ± 0.038.
For MUL1 (UniProt Q969V5) the same measures were 0.977 ± 0.022 and 1.01 ± 0.014.
NSL1 (UniProt Q96IY1): the NP40-soluble protein abundance reads like this: (concentration: 0.1mM) 1.04 ± 0.053; (concentration: 0.5mM) 1.01 ± 0.034.
For HSPBAP1 (UniProt Q96EW2) the same measures were 1.004 ± 0.0058 and 1.005 ± 0.0071.
As to UniProt Q93008 and related entries, the NP40-soluble protein abundance (concentration: 0.1mM) was 1.03 ± 0.041 and the NP40-soluble protein abundance (concentration: 0.5mM) was 0.967 ± 0.093.
With ATAD5 (UniProt Q96QE3), the NP40-soluble protein abundance is, setting by setting: (concentration: 0.1mM) 1.014 ± 0.01; (concentration: 0.5mM) 1.008 ± 0.0076.
As to FAF2 (UniProt Q96CS3), the NP40-soluble protein abundance is, setting by setting: (concentration: 0.1mM) 0.9792 ± 0.0075; (concentration: 0.5mM) 0.965 ± 0.017.
For KTI12 (UniProt Q96EK9), in that order: 0.972 ± 0.069 and 1 ± 0.11.
With GTF3C6 (UniProt Q969F1), the NP40-soluble protein abundance (concentration: 0.1mM) is 1.01 ± 0.055 and the NP40-soluble protein abundance (concentration: 0.5mM) is 1.03 ± 0.053.
For UniProt Q96AQ6 and related entries the same measures were 1.01 ± 0.037 and 0.987 ± 0.025.
For UniProt Q969N2 and related entries, in that order: 0.991 ± 0.027 and 1.03 ± 0.018.
Consider UniProt Q96CU9 and related entries, for which the NP40-soluble protein abundance reads like this: (concentration: 0.1mM) 1.03 ± 0.027; (concentration: 0.5mM) 1.01 ± 0.034.
For ZNF830 (UniProt Q96NB3) the same measures were 1.02 ± 0.018 and 1.03 ± 0.068.
For CCDC47 (UniProt Q96A33), in that order: 1.01 ± 0.017 and 1.02 ± 0.017.
LRRC59 (UniProt Q96AG4): the NP40-soluble protein abundance by setting is: (concentration: 0.1mM) 0.996 ± 0.066; (concentration: 0.5mM) 1.06 ± 0.14.
For PPP1R14B (UniProt Q96C90) the same measures were 0.985 ± 0.012 and 1.03 ± 0.021.
With UniProt Q96QG7 and related entries, the NP40-soluble protein abundance reads like this: (concentration: 0.1mM) 0.99895 ± 0.00069; (concentration: 0.5mM) 0.95 ± 0.034.
For UniProt Q96B97 and related entries the same measures were 0.997 ± 0.038 and 1.02 ± 0.053.
For TRMT61A (UniProt Q96FX7) the same measures were 1.03 ± 0.036 and 1.02 ± 0.052.
As to PNPLA2 (UniProt Q96AD5), the NP40-soluble protein abundance by setting is: (concentration: 0.1mM) 1.02 ± 0.015; (concentration: 0.5mM) 1 ± 0.033.
As to ATXN7L3B (UniProt Q96GX2), the NP40-soluble protein abundance (concentration: 0.1mM) was determined as 1.01 ± 0.03 and the NP40-soluble protein abundance (concentration: 0.5mM) came to 1.02 ± 0.041.
For PTCD3 (UniProt Q96EY7), in that order: 1.06 ± 0.036 and 0.999 ± 0.057.
For UniProt Q96E29 and related entries, the NP40-soluble protein abundance (concentration: 0.1mM) is 0.996 ± 0.029 and the NP40-soluble protein abundance (concentration: 0.5mM) was found to be 0.975 ± 0.012.
For GNPNAT1 (UniProt Q96EK6) the same measures were 1 ± 0.015 and 1.03 ± 0.039.
As to ZC3HAV1L (UniProt Q96H79), the NP40-soluble protein abundance worked out at 1.01 ± 0.029 (concentration: 0.1mM) and 1.02 ± 0.047 (concentration: 0.5mM).
For UniProt Q96GC5 and related entries the same measures were 1.01 ± 0.035 and 1.05 ± 0.059.
For UniProt Q96P48 and related entries, in that order: 1.03 ± 0.02 and 0.97 ± 0.078.
Take UniProt Q96L93 and related entries: the NP40-soluble protein abundance turned out to be 0.986 ± 0.034 (concentration: 0.1mM) and 0.971 ± 0.056 (concentration: 0.5mM).
On to UniProt Q96Q11 and related entries, for which the NP40-soluble protein abundance reads like this: (concentration: 0.1mM) 1.01 ± 0.065; (concentration: 0.5mM) 1.04 ± 0.079.
Consider ZKSCAN4 (UniProt Q969J2), for which the NP40-soluble protein abundance worked out at 0.981 ± 0.012 (concentration: 0.1mM) and 0.98322 ± 0.00045 (concentration: 0.5mM).
For UniProt Q96EZ8 and related entries, in that order: 1 ± 0.014 and 0.99 ± 0.056.
For UniProt Q96PU8 and related entries, in that order: 0.989 ± 0.067 and 0.957 ± 0.062.
For UniProt Q96DB5, in that order: 1.03 ± 0.014 and 1.007 ± 0.0078.
Take UniProt Q96AE4 and related entries: the NP40-soluble protein abundance runs as follows: (concentration: 0.1mM) 0.981 ± 0.01; (concentration: 0.5mM) 0.986 ± 0.033.
For UniProt Q96BW9 and related entries the same measures were 1.03 ± 0.017 and 0.984 ± 0.072.
For PDXP (UniProt Q96GD0), in that order: 1.004 ± 0.0081 and 0.982 ± 0.036.
For UniProt Q93084-2, in that order: 1.01 ± 0.019 and 0.986 ± 0.015.
As for UniProt Q96G25 and related entries, the NP40-soluble protein abundance by setting is: (concentration: 0.1mM) 1.01 ± 0.037; (concentration: 0.5mM) 0.993 ± 0.044.
As for MCEE (UniProt Q96PE7), the NP40-soluble protein abundance by setting is: (concentration: 0.1mM) 0.98 ± 0.023; (concentration: 0.5mM) 1.04 ± 0.064.
For UniProt Q96D71 and related entries the same measures were 1 ± 0.038 and 0.9925 ± 0.0056.
For UniProt Q96QD9 and related entries, in that order: 0.991 ± 0.011 and 1.01 ± 0.038.
Regarding PURB (UniProt Q96QR8), the NP40-soluble protein abundance is 1.02 ± 0.05 (concentration: 0.1mM) and 1.01 ± 0.033 (concentration: 0.5mM).
As to UniProt Q96KG9 and related entries, the NP40-soluble protein abundance is, setting by setting: (concentration: 0.1mM) 0.996 ± 0.037; (concentration: 0.5mM) 0.98 ± 0.04.
For UniProt Q96F07-2, in that order: 1.03 ± 0.028 and 0.979 ± 0.018.
For TOE1 (UniProt Q96GM8) the same measures were 1.03 ± 0.021 and 1.07 ± 0.083.
For DUS3L (UniProt Q96G46) the same measures were 0.9924 ± 0.0054 and 1 ± 0.033.
As for UniProt Q96P47 and related entries, the NP40-soluble protein abundance (concentration: 0.1mM) came out at 1.032 ± 0.0094 and the NP40-soluble protein abundance (concentration: 0.5mM) came to 1.01 ± 0.023.
As to UniProt Q96JG6, the NP40-soluble protein abundance is 0.991 ± 0.012 (concentration: 0.1mM) and 0.9973 ± 0.0033 (concentration: 0.5mM).
For DNAJC1 (UniProt Q96KC8), in that order: 1.01 ± 0.028 and 0.967 ± 0.031.
For UniProt Q96JY6 and related entries, in that order: 0.994 ± 0.067 and 0.992 ± 0.045.
For UniProt Q96IJ6 and related entries the same measures were 1 ± 0.021 and 1.02 ± 0.018.
Turning to RMI2 (UniProt Q96E14), the NP40-soluble protein abundance turned out to be 0.99184 ± 0.00078 (concentration: 0.1mM) and 1.03 ± 0.063 (concentration: 0.5mM).
On to UniProt Q96BD5 and related entries, for which the NP40-soluble protein abundance (concentration: 0.1mM) stood at 0.982 ± 0.075 and the NP40-soluble protein abundance (concentration: 0.5mM) came to 1.01 ± 0.092.
In the case of CHCHD1 (UniProt Q96BP2), the NP40-soluble protein abundance turned out to be 1.05 ± 0.044 (concentration: 0.1mM) and 1.02 ± 0.062 (concentration: 0.5mM).
For MRPL24 (UniProt Q96A35) the same measures were 1.03 ± 0.097 and 0.979 ± 0.069.
